PubChem BioAssay AID1259425 – University of Nebraska Medical Center – 2018
The whole screen tested about 14,000 reagents; below is a random part of them. The record does not give: the time to read-out.

Assay: 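Seek colon cancer weak points whose silencing resembles KSR1 loss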 (primary screen)
Cells: HCT116 human colon cancer cells
Reagent: siRNA pool against human genes, 50 nM siRNA
Measurement: 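After 50 nM siRNA pool, branched-DNA assay measures six marker transcripts per well, minus blank, normalised to the geometric mean of two housekeeping transcripts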
Direction: BNIP3L mRNA: higher = more BNIP3L transcript after knockdown; NDRG1 mRNA: higher = more NDRG1 transcript after knockdown; BNIP3 mRNA: higher = more BNIP3 transcript after knockdown; ALDOC mRNA: higher = more ALDOC transcript after knockdown; ACSL5 mRNA: higher = more ACSL5 transcript after knockdown

The opening 3 records, ahead of the listing:
gene knocked down,"BNIP3L mRNA, set 1","NDRG1 mRNA, set 1","BNIP3 mRNA, set 1","ALDOC mRNA, set 1","ACSL5 mRNA, set 1"
MORF4L2 (mortality factor 4 like 2),0.0783,0.257,0.225,0.0151,0.235
KCNJ5 (potassium inwardly rectifying channel subfamily J member 5),0.287,0.766,0.314,0.0464,0.237
RDH11 (retinol dehydrogenase 11),0.117,0.76,0.511,0.0561,0.243

Results, from the start:
gene knocked down,"BNIP3L mRNA, set 1","NDRG1 mRNA, set 1","BNIP3 mRNA, set 1","ALDOC mRNA, set 1","ACSL5 mRNA, set 1"
MORF4L2 (mortality factor 4 like 2),0.0783,0.257,0.225,0.0151,0.235
KCNJ5 (potassium inwardly rectifying channel subfamily J member 5),0.287,0.766,0.314,0.0464,0.237
RDH11 (retinol dehydrogenase 11),0.117,0.76,0.511,0.0561,0.243
RRM2B,0.0648,0.0825,0.271,0.0218,0.135
ZBED5 (zinc finger BED-type containing 5),0.0758,0.363,0.404,0.0249,0.181
CENPT (centromere protein T),0.0797,0.17,0.301,0.0168,0.221
TIGAR (TP53 induced glycolysis regulatory phosphatase),0.0741,0.199,0.246,0.0296,0.254
CPLX1 (complexin 1),0.114,0.0424,0.413,0.0201,0.0727
TCEAL9 (transcription elongation factor A like 9),0.214,0.324,0.538,0.0344,0.126
GNB1 (G protein subunit beta 1),0.145,0.101,0.275,0.0212,0.267
DDX46 (DEAD-box helicase 46),0.185,0.223,0.36,0.0573,0.237
SPART (spartin),0.186,0.191,0.336,0.0555,0.269
CFL1 (cofilin 1),0.08,0.508,0.395,0.0476,0.384
"DECR1 (2,4-dienoyl-CoA reductase 1)",0.0789,0.0895,0.263,0.02,0.141
NDST3 (N-deacetylase and N-sulfotransferase 3),0.247,0.3,0.547,0.0501,0.249
WEE1 (WEE1 G2 checkpoint kinase),0.0796,0.295,0.381,0.0149,0.245
SRSF8 (serine and arginine rich splicing factor 8),0.137,0.265,0.139,0.0138,0.0638
NEUROD4 (neuronal differentiation 4),0.105,0.151,0.266,0.0103,0.148
P2RX2 (purinergic receptor P2X 2),0.0976,0.157,0.306,0.0319,0.0916
SYNGR1 (synaptogyrin 1),0.0984,0.206,0.38,0.0143,0.1
CCDC144A (coiled-coil domain containing 144A),0.207,0.132,0.288,0.0378,0.129
DPYD (dihydropyrimidine dehydrogenase),0.0849,0.13,0.326,0.0313,0.135
SS18 (SS18 subunit of BAF chromatin remodeling complex),0.102,0.0915,0.466,0.0113,0.219
SLC22A3,0.0786,0.318,0.197,0.023,0.159
MCF2L2 (MCF.2 cell line derived transforming sequence-like 2),0.159,0.24,0.265,0.0388,0.218
KLF9 (KLF transcription factor 9),0.149,0.114,0.488,0.0299,0.291
UTF1 (undifferentiated embryonic cell transcription factor 1),0.144,0.144,0.258,0.0112,0.184
SOCS6 (suppressor of cytokine signaling 6),0.0819,0.0985,0.255,0.0225,0.162
CTDSPL (CTD small phosphatase like),0.17,0.328,0.444,0.0568,0.11
FGF3 (fibroblast growth factor 3),0.0577,0.119,0.258,0.0162,0.133
PNMA8B (PNMA family member 8B),0.371,0.563,0.354,0.124,0.395
ARIH2 (ariadne RBR E3 ubiquitin protein ligase 2),0.1,0.185,0.242,0.0247,0.0891
ULBP1 (UL16 binding protein 1),0.194,0.33,0.419,0.0291,0.13
IRF2BPL (interferon regulatory factor 2 binding protein like),0.0774,0.0713,0.301,0.0137,0.0874
PECR (peroxisomal trans-2-enoyl-CoA reductase),0.126,0.059,0.212,0.015,0.0527
DMC1 (DNA meiotic recombinase 1),0.102,0.269,0.261,0.022,0.245
GPC6 (glypican 6),0.192,0.237,0.224,0.0319,0.29
GDPD3 (glycerophosphodiester phosphodiesterase domain containing 3),0.113,0.272,0.153,0.139,0.184
PSMF1 (proteasome inhibitor subunit 1),0.233,0.93,0.232,0.0784,0.244
FBN3 (fibrillin 3),0.104,0.129,0.238,0.0822,0.122
LIN28A (lin-28 RNA binding posttranscriptional regulator A),0.209,0.146,0.351,0.0928,0.121
KIF5A (kinesin family member 5A),0.0525,0.0908,0.21,0.0321,0.104
KIFC1 (kinesin family member C1),0.0352,0.143,0.25,0.00555,0.134
ANKS1B (ankyrin repeat and sterile alpha motif domain containing 1B),0.176,0.324,0.401,0.0679,0.239
IGFLR1 (IGF like family receptor 1),0.133,0.847,0.486,0.0499,0.263
HOMEZ (homeobox and leucine zipper encoding),0.106,0.103,0.416,0.0161,0.265
ZIC1 (Zic family zinc finger 1),0.118,0.0626,0.252,0.0153,0.1
TMCO6 (transmembrane and coiled-coil domains 6),0.0704,0.242,0.399,0.0175,0.198
PARVB (parvin beta),0.178,0.238,0.302,0.0438,0.343
ZNF703 (zinc finger protein 703),0.288,0.694,0.546,0.129,0.274
